# Some of the results follow.
# Target: T1, OsSMF1 (Oryza sativa, UniProt Q6ZLB0 1-436)
# T1 sequence: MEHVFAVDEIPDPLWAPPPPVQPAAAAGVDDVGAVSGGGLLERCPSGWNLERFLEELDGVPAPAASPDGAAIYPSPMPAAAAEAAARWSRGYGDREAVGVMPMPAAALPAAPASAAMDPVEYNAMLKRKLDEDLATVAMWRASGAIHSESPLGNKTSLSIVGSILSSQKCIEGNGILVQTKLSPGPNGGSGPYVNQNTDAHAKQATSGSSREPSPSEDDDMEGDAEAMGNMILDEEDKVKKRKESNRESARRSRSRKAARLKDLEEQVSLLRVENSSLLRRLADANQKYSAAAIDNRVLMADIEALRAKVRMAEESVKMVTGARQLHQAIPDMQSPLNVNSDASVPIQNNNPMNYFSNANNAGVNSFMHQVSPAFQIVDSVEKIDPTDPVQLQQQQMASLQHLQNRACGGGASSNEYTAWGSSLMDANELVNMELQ
# Assay: protein-binding microarray (RPBM); PBS, 2% BSA, 51.3 ng/ul salmon testes DNA, 50 uM zinc acetate, 200 nM TF, 25 C, 1 h; high values mean tight binding
# Conditions: protein: recombinant; tags: N-terminal polyhistidine and DsRed monomer fusion (pET32a); chain copies: 2; label: CyDye5-dUTP incorporated in the synthesized complementary strand; 3' TTTTT single-stranded linker to array surface; dsDNA, one strand shown
# Method in brief: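 Transcription factors, each fused N-terminally to a polyhistidine tag and DsRed, were expressed in E. coli BL21-CodonPlus and purified on Ni–NTA. A custom Agilent array was made double-stranded by primer extension with Cy5-dUTP and blocked with 2% BSA. It was incubated with 200 nM protein in PBS, 2% BSA, salmon testes DNA and 50 µM zinc acetate at 25 °C for 1 h, then washed. The binding signal is per-feature fluorescence intensity (arbitrary units) read on an Axon 4000B scanner.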
row,Sequence,binding signal
1,GATCTAGCCGACTCGATCCCGCCGATGACGATTCCATCCCCGGAGTCACCTAGTGCAG,39300 fluorescence intensity (a.u.)
2,CACTCTAGAAGACAACAAGACATAGCCCGTCACCACCACACGGAGTCACCTAGTGCAG,3210 fluorescence intensity (a.u.)
3,CTCCAAGCCCGTGATGGCCAAGCAGACAGCAGATTAAGAACGGAGTCACCTAGTGCAG,3350 fluorescence intensity (a.u.)
4,AGTCTCTAACTAAACACCATATATCTCTATTAATTACTACCGGAGTCACCTAGTGCAG,16000 fluorescence intensity (a.u.)
5,AAACCATCATCTTCACTAGTAGTAGAACCCAGATCGAGCACGGAGTCACCTAGTGCAG,10200 fluorescence intensity (a.u.)
6,CGCTTCGGTGGAGCTCTGGATCTGACGCGTCCTCTTCTTCCGGAGTCACCTAGTGCAG,6160 fluorescence intensity (a.u.)
7,TTATTCTTCTACCTAACCAGATCTCTCAGACCATATCATCCGGAGTCACCTAGTGCAG,3980 fluorescence intensity (a.u.)
8,ACACCCATCCATCACATCACCACATCACCAACAATGGCATCGGAGTCACCTAGTGCAG,5150 fluorescence intensity (a.u.)
9,TTAACAATGAGACCCTTGGCTACTTTATTGGAAGGGTCTACGGAGTCACCTAGTGCAG,12200 fluorescence intensity (a.u.)
10,GATTTGATTCGTCATCAAATGTTCTTTAAGCATGACATAACGGAGTCACCTAGTGCAG,3710 fluorescence intensity (a.u.)
11,ATTGGTGTTGGTTGGTACGCTGGTTGGTGACCATGCAGTTCGGAGTCACCTAGTGCAG,4250 fluorescence intensity (a.u.)
12,CCCTTTACACTTGCTTATCCAGTCATAGTTGCCTTACCAGCGGAGTCACCTAGTGCAG,5040 fluorescence intensity (a.u.)
13,ACCAAATTTTAGCAATACCAAAATTTTGGCATAGTTGCCACGGAGTCACCTAGTGCAG,7010 fluorescence intensity (a.u.)
14,CTTGATACAGAGAGAAATTAAGTGCAAGTGTGTGACACGTCGGAGTCACCTAGTGCAG,5600 fluorescence intensity (a.u.)
15,GTGCCCGTCTGTTGAACTGCCTTCATGGCAAGGATGTCACCGGAGTCACCTAGTGCAG,4310 fluorescence intensity (a.u.)
16,CCTAAAATACATGACCAGCCCACACAGGACTTAACCCACACGGAGTCACCTAGTGCAG,3230 fluorescence intensity (a.u.)
17,TGTATCTCAAAATAGTGACCTCACCATATTGTCATCCTTTCGGAGTCACCTAGTGCAG,3160 fluorescence intensity (a.u.)
18,GTGGCAGCGCCAGCGAGCTCGTCATCGTCGTCGTCGTCGGCGGAGTCACCTAGTGCAG,15700 fluorescence intensity (a.u.)
19,TTACTTCCTCCATTTCATAATGTGAGTCATTCTAGCATTTCGGAGTCACCTAGTGCAG,7570 fluorescence intensity (a.u.)
20,TTCCTCCAGACATCAACCACCTTCCAGGTGGCGGCGGCCGCGGAGTCACCTAGTGCAG,3290 fluorescence intensity (a.u.)
21,GGTTAACTTTGATTCACATTCCAACTCATCCATTTTCTAACGGAGTCACCTAGTGCAG,3890 fluorescence intensity (a.u.)

row,Sequence,binding signal
1,ATGGCTGTTGATTTTAATAGTGCAGGAGTGGTTTATAGCTCGGAGTCACCTAGTGCAG,4220 fluorescence intensity (a.u.)
2,GCGTGGGGCCCGTGCTGTCAGTGAGACGTGGCGCTGCGCCCGGAGTCACCTAGTGCAG,7700 fluorescence intensity (a.u.)
3,TTAAAGTAGCTTTACACGTAAATCGGACGCTGACGTCAGCCGGAGTCACCTAGTGCAG,28400 fluorescence intensity (a.u.)
4,AATTTCCACGGTCCACGGGCCGGCCCCACTGCCCAGTCAGCGGAGTCACCTAGTGCAG,6030 fluorescence intensity (a.u.)
5,TGTTCCAACCCGCTCCGTGTGCTGACGTGGCATGACATGGCGGAGTCACCTAGTGCAG,44900 fluorescence intensity (a.u.)
6,CGCTGCTGAGTGCTGACTCCTTCGCCCTCCTCCTCACTTTCGGAGTCACCTAGTGCAG,7650 fluorescence intensity (a.u.)
7,GTCATACACAATGAGGTCTAAGTCAAATCGAGTCAACGAGCGGAGTCACCTAGTGCAG,3280 fluorescence intensity (a.u.)
8,GAATCGTCTAGTTCTCTGGTTAAAGGGTACGAATCAATTCCGGAGTCACCTAGTGCAG,4260 fluorescence intensity (a.u.)
9,GAAGAACGCGTCAGGTCACTGGAGAGCATCGCTACCTCGCCGGAGTCACCTAGTGCAG,3400 fluorescence intensity (a.u.)
10,GATTCGCGACACGGCACGGTACAGTCATTAACAAGGCCAGCGGAGTCACCTAGTGCAG,6320 fluorescence intensity (a.u.)
11,AAATATTTTCAGTCTACTTAGTGACACAGCGTCCAATTTTCGGAGTCACCTAGTGCAG,6410 fluorescence intensity (a.u.)
12,CCGCAGCTTGTGAAGTATGGAAAGCGATCAAATTCGAGTTCGGAGTCACCTAGTGCAG,5200 fluorescence intensity (a.u.)
13,GAAGTGGAAGAGCTCCACGCCTGTCGAGCTGTCTGCGTCGCGGAGTCACCTAGTGCAG,3300 fluorescence intensity (a.u.)
14,ATGATGCACGACAGGACGACGTGTTTCCACGTGAAACGTCCGGAGTCACCTAGTGCAG,5990 fluorescence intensity (a.u.)
15,CTCGATCATGGCGGACTCGAGCCCCTCCACGTACCTCCGCCGGAGTCACCTAGTGCAG,5910 fluorescence intensity (a.u.)
16,CGTGGTTTATTGTAAAATTAGTGATGTAACAAATAATGTGCGGAGTCACCTAGTGCAG,3390 fluorescence intensity (a.u.)
17,TCCACGCACAAACCACGTAAGCACGCACCACCTCGCGCGGCGGAGTCACCTAGTGCAG,14700 fluorescence intensity (a.u.)
18,CACTGTCGGCGTGCGCGCCGCGTGCCGCCTCCCGTCCTCTCGGAGTCACCTAGTGCAG,3750 fluorescence intensity (a.u.)
19,TAGATAGTACTAGGTGAAGTTGATGCGTGTTGGTTCACTGCGGAGTCACCTAGTGCAG,3490 fluorescence intensity (a.u.)
20,ACACCGAGCAATGATCATATTGTAATCCTTCCCGTCGCCGCGGAGTCACCTAGTGCAG,3400 fluorescence intensity (a.u.)
21,TGGATTCCCCTCCTTGGAACCACGTCTGCCGCACAGTTCCCGGAGTCACCTAGTGCAG,3720 fluorescence intensity (a.u.)

# As entered above.
# binding signal with TGTTCCAACCCGCTCCGTGTGCTGACGTGGCATGACATGGCGGAGTCACCTAGTGCAG is entered as 44900 fluorescence intensity (a.u.)
# binding signal with GTCATACACAATGAGGTCTAAGTCAAATCGAGTCAACGAGCGGAGTCACCTAGTGCAG is entered as 3280 fluorescence intensity (a.u.)
